Paper PMC8980073
No constants are given. Whether binding was seen depends on the method and setting. In cells and extracts the contact can be indirect. Some binding calls cover weakened binding; strength is not graded here. Tags and fused reporters may be left off the sequences shown.

The chains behind the UniProt entries cited, without tags or fusion partners. Residues count along the entry.
UniProt Q15075, residues 1-209: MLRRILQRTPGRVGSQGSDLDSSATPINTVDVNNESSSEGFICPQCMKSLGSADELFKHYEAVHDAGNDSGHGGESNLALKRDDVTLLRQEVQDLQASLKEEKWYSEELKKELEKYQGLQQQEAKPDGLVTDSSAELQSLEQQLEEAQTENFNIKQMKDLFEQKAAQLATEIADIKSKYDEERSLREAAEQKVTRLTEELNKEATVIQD

Biological target: GST-EEA1^1-209 (human) (UniProt Q15075)
Test: pull-down; GST-EEA1^1-209 on glutathione sepharose beads incubated with lysates of GFP-Rab5A^REMI/WT cells or the same cells with deletion of pripA or tbcrA; 20 mM Hepes pH 7.2, 100 mM NaCl, 0.3% CHAPS, 5 mM MgCl2, 1 mM DTT, 4 °C, 2 h; anti-GFP blot; only the target purified

binding: binds
B1: GFP-Rab5A^REMI (protein, UniProt Q86JP3 1-201)
chain: MNNNNKIFQFKLVLLGEAAVGKSSLVLRFVRGHFLDYQESTIGAAFLAQTVCLNDTTVKFEIWDTAGQERYHTLAPMYYRGAQAAIVVYDIRSEDSFERAIKWVKELQRQGSPNIVIALAGNKLDLAAKRKVETAEAQQYAEENGLLFMETSAKTSQNVNELFVEIAKKLPKTPTTRPGSGRVAIAPIDNGNTGKKNKCCN
